Assay results from publication PMC10683333.
No constants are given. Whether binding was seen depends on the method and setting. In cells and extracts the contact can be indirect. A yes stands for co-enrichment or nearness to the bait. Other partners may have been found.

B1: RabGDP dissociation inhibitor beta (protein, UniProt O97556 1-445)
chain: MNEEYDVIVLGTGLTECILSGIMTVNGKKVLHMDRNPYYGGESASITPLEDLYKRFKIPGAPPASMGRGRDWNLDLIPKFLMANGQLVKMLLYTEVTRYLDFKVTEGSFVYKGGKIYKVPSTEAEALASSLMGLFEKRRFRKFLVYVANFDEKDPRTFEGIDPKKTAIGEVYKKFDLGQDVIDFTGHALALYRTDDYLDQPCCETINRIKLYSESLARYGKSPYLYPLYGLGELPQGFARLSAIYGGTYMLNKPIEEIIVQNGKVIGVKSEGEVARCKQLICDPSYVKDRVEKVGQVIRVICILSHPIKNTNDANSCQIIIPQNQVNRKSDIYVCMISSAHNVAAQGKYIAIVSTTAETKEPEKEIRPALELLEPIEQKFVSISDLLVPKDLGTESQIFISRTYDATTHFETTCDDIKNIYKRMTGSEFDFEEMKRKKNDIYGED
B2: Dolichyl-diphosphooligosaccharide protein glycosyltransferase 48 kDa subunit (protein, UniProt Q05052 33-445)
chain: GPRTLVLLDNLNLRETHSLFFRSLKDRAFELTFKTADDPSLSLIKYGEFLYDNLIIFSPSVEDFGGNINVETISTFIDGGGSVLVAASSDIGDPLRELGSECGIEFDEEKTAVIDHHNYDVSDLGQHTLIVADPENLLKAPTIVGRSSLNPILFRGVGMVADPDNPLVLDILTGSSTSYSFFPDKPITQYPHAVGKNTLLIAGLQARNNARVVFSGSLDFFSDAFFNSAVQKAAPGSQRYSQTGNYELAVALSRWVFKEEGVLRVGPVSHHRVGETAPPNAYTVTDLVEYSIVIEQLSNGRWVPFDGDDIQLEFVRIDPFVRTFLKKKGGKYSVQFKLPDVYGVFQFKVDYNRLGYTHLHSSTQVSVRPLQHTQYERFIPSAYPYYASAFSMMLGLFIFSTVFLHMKEKEKSD
B3: Coiled-coil domain-containing protein 39 (protein, UniProt E2R1I5 1-939)
chain: MSSELLEELHWDDGFAIPVANEENKMLEDQLSKLQEERASLQDQLRDYEDRINAMTSHFKNVKQEFSFTQSLCKAREHEIESEEHFKIIAERELGRIKDEIQRLENEMTSIREKKSDKENNIFKTTQKLDGLKCQINWDQQALEAWLEESAHKDSDALTLQKYAQQDDNKIRALTLQLERLTLECNQRRKVLDNELTETLSAQLELDKAAQDFRKIHNERQELIKQWENTIEQMRKRDRDIDNGALALARIKQELREKENLVKEKIKFLESEIGNNTEYEKRISVADRKLLKCRTEYQHHETNRNQLKDELDSLKATVNRSSSDLEALRKNISKIKKDIQEETARLQKIKNHNQSVKKKLKQITEKTMSVEEKATNLEDMLREEEKSVKEVEVQLNIVKDVLFKKVQELQTEAMKEKAVVSEIEGTRSSLKHLNHQLHKLDFETLKQQEIMYSQDFYIQQVERRMSRLKGEINSEEKQALETKIVELKKILEEKKSTFDLLESQIKKLHNDLYFIKKSNSKNCDEKQFLMTKVNELNLFNDRSEKELNKTKALKQDLMIEDNLLKLEVKRTREMLHSKAEEVLSLEKRKQQLHTAMEERMEEIKVHKTMLASQIRYIDQERQNLSAEFHERLSKIDKLKNRYEILTVVMLPPEGEEEKTQAYYVIKAAQEKEELQREGDSLDAKINKAEKEIYALENTLQVLRSCNNNYKQSFQKITPSSDEYELKIQLEEQKRAIDEKYRYKQRQIRELQEDIQSMENTLEVIEHLTNNVKEKLSEKQAYSSQLNRETEEQRPKLERVTKQCAKLTKEIRLLKDTKDETLEEQDIKLREVKHFHKIIDEMLAEVTEENAEIHIILQTYFQQNGLELPTAGTKGSRQSSRSPSQTSLLSARSTTSVASQTSIKVLELNFPASSSVTGNISRPASATTIPSNGKNKKGSK
B4: Dolichyl-diphosphooligosaccharide protein glycosyltransferase subunit 1 (protein, UniProt E2RQ08 25-607)
chain: SPEAPLLVNEDVKRTVDLSSHLAKVTAEVVLAHPGGGSTARAASFLLALEPELEARLAHLGVQVKGEDEEENNLEVRETKIKGKSGRFFTVKLPVALDPGAKVSVVVETVYTHVLQPYPTQITQSEKQFVVFEGNHYFYSPYPTKTQTMRVKLASRNVESYTKLGNPTRSEDLLDYGPFRDIPAYSQDTFKVHYENNSPFLTITSMTRVIEVSHWGNIAVEENVDLKHTGAVLKGPFSRYDYQRQPDSGIASIRSFKTILPAAAQDVYYRDEIGNVSTSHLLILDDSVEMEIRPRFPLFGGWKTHYIVGYNLPSYEYLYNLGDQYALKMRFVDHVFDEQVIDSLTVKIILPEGAKNIQVDSPYEISRAPDELHYTYLDTFGRPVIVAYKKNLVEQHIQDIVVHYTFNKVLMLQEPLLVVAAFYILFFTVIIYVRLDFSITKDPAAEARMKVACITEQVLTLVNKRIGLYRHFDETINRYKQSRDVSTLNSGKKSLETEHKALTSEIASLQSRLKTEGSDLCDKVSEMQKLDAQVKELVLKSAVEAERLVAGKLKKDTYIENEKLISGKRQELVTKIDHILDAL
B5: Ras-related protein Rab-11A (protein, UniProt P62490 1-216)
chain: MGTRDDEYDYLFKVVLIGDSGVGKSNLLSRFTRNEFNLESKSTIGVEFATRSIQVDGKTIKAQIWDTAGQERYRAITSAYYRGAVGALLVYDIAKHLTYENVERWLKELRDHADSNIVIMLVGNKSDLRHLRAVPTDEARAFAEKNGLSFIETSALDSTNVEAAFQTILTEIYRIVSQKQMSDRRENDMSPSNNVVPIHVPPTTENKPKVQCCQNI

target: AT-rich interactive domain-containing protein 1A (dog (endogenous in MDCK)); assay: affinity purification with mass spectrometry; IP of endogenous ARID1A from 1 mg pre-cleared MDCK lysate (RIPA buffer: 50 mM Tris-HCl pH 7.4, 150 mM NaCl, 1 mM EDTA, 0.5% Triton X-100) with mouse monoclonal anti-ARID1A and protein G sepharose, 4 °C overnight; SDS-PAGE, in-gel tryptic digestion, nanoLC-ESI-LTQ-Orbitrap MS/MS; proteins found in the isotype IgG IP subtracted

binding | Binder
binds | B1
binds | B2
binds | B3
binds | B4
binds | B5
